These results are taken from patent publication US10183080B2 (The Government of the United States of America, as …, priority 2016, dated 2019).

This data set is described as follows: general procedure: Boc solid-phase peptide synthesis. As to conditions: whole synthesis.
Consider [RRRRRRRRRFG]8-x-K′K′K′WP9G2H6, for which the outcome is “the 4×, 8×, 16× peptide dendrimers could not be synthesized in linear SPPS fashion”.
Turning to [RRRRRRRRRFG]4-x-K′K′WP9G2H6, the outcome is “the 4×, 8×, 16× peptide dendrimers could not be synthesized in linear SPPS fashion”.
Turning to [RRRRRRRRRFG]16-x-K′K′K′K′WP9G2H6, the outcome is reported as “the 4×, 8×, 16× peptide dendrimers could not be synthesized in linear SPPS fashion”.
